In PubChem BioAssay AID248 (DTP/NCI, 2004):
The list does not hold the whole screen: it is rich in T/C values a quarter to a half above the control, in often repeated tests (any T/C) and in doses without a T/C. Other doses and runs of a compound stand elsewhere. T/C gives the treated animals as a percentage of the vehicle group. Some doses have a count of surviving animals in place of a T/C: the source holds a T/C of zero for them, seemingly a mark for toxic or unscored doses. Some doses without a T/C left all or most animals alive at the check, yet need not have been tolerated: survival well below the control is almost never listed, so the zero probably covers shortened survival too. Counts of survivors are from the toxicity check (mostly the fifth day) where no day follows; animals may have died later. Schedule codes are those of the source, read here as Q, the interval in days (D) or hours (H), X, the number of doses. Some entries were tested several times; their values stand side by side, smallest first. Some schedules carry Z or #; the key to these is not given. Where survival is the endpoint, this PubChem deposit counts one and a half times the control or more as active, and values a quarter to a half above the control carry no call in these data; other NCI protocols may use other cut-offs. Some T/C values are followed by the survivors on the day toxicity was checked, most often the fifth; where none is given, no animal had died by that day.

System: L1210 leukemia ip in BDF1 mice, survival T/C
Assay: NCI In Vivo Anticancer Drug Screen. Data for tumor model L1210 Leukemia (intraperitoneal) in B6D2F1 (BDF1) mice
Conditions: T/C endpoint: mean survival time, higher T/C = longer survival

For `OC(CBr)C(O)C(O)C(O)CBr` (stereo not drawn), the T/C (dose: 37.5 mg/kg/injection, schedule: Q03HX024 (ip), vehicle: carboxymethylcellulose (CMC)) was 148 % of control, the T/C (dose: 50.0 mg/kg/injection, schedule: Q01DX009 (ip), vehicle: other) was 131 % of control [5 of 6 alive] and the survivor count (dose: 62.5 mg/kg/injection, schedule: Q01DX Z (ip), vehicle: carboxymethylcellulose (CMC)) was 6 of 6. The T/C (dose: 62.5 mg/kg/injection, schedule: Q04DX024 (ip), vehicle: carboxymethylcellulose (CMC)) was 132 % of control, the T/C (dose: 75.0 mg/kg/injection, schedule: Q06HX012 (ip), vehicle: carboxymethylcellulose (CMC)) was 130 % of control and the T/C (dose: 100.0 mg/kg/injection, schedule: Q01DX009 (ip), vehicle: other) was 135 % of control. For the same compound, the T/C (dose: 120.0 mg/kg/injection, schedule: Q01DX009 (ip), vehicle: carboxymethylcellulose (CMC)) was 139 % of control, the T/C (dose: 120.0 mg/kg/injection, schedule: Q01DX009 (sc), vehicle: carboxymethylcellulose (CMC)) was 136 % of control and the survivor count (dose: 120.0 mg/kg/injection, schedule: Q## X024 (ip), vehicle: carboxymethylcellulose (CMC)) was 1 of 10. For the same compound, the T/C (dose: 125.0 mg/kg/injection, schedule: Q01DX015 (ip), vehicle: carboxymethylcellulose (CMC)) was 129 % of control, the survivor count (dose: 125.0 mg/kg/injection, schedule: Q03HX008 (ip), vehicle: carboxymethylcellulose (CMC)) was 9 of 10 and the survivor count (dose: 125.0 mg/kg/injection, schedule: Q04DX024 (ip), vehicle: carboxymethylcellulose (CMC)) was 9 of 10. The T/C (dose: 125.0 mg/kg/injection, schedule: Q#A X034 (ip), vehicle: carboxymethylcellulose (CMC)) was 128 % of control, the T/C (dose: 150.0 mg/kg/injection, schedule: Q01DX009 (ip), vehicle: carboxymethylcellulose (CMC)) was 138 % of control and the survivor count (dose: 150.0 mg/kg/injection, schedule: Q03HX024 (ip), vehicle: carboxymethylcellulose (CMC)) was 8 of 8. The T/C (dose: 150.0 mg/kg/injection, schedule: Q04DX003 (ip), vehicle: carboxymethylcellulose (CMC)) was 125 % of control, the T/C (dose: 150.0 mg/kg/injection, schedule: Q12HX006 (ip), vehicle: carboxymethylcellulose (CMC)) was 146 % of control and the T/C (dose: 160.0 mg/kg/injection, schedule: Q01DX009 (ip), vehicle: saline) was 131 % of control [5 of 6 alive]. For the same compound, the T/C (dose: 200.0 mg/kg/injection, schedule: Q01DX009 (ip), vehicle: other) was 135 % of control, the T/C (dose: 200.0 mg/kg/injection, schedule: Q04DX003 (ip), vehicle: Klucel (hydroxypropylcellulose) (HPC)) was 135 % of control and the T/C (dose: 200.0 mg/kg/injection, schedule: Q## X003 (ip), vehicle: other) was 149 % of control. For the same compound, the survivor count (dose: 240.0 mg/kg/injection, schedule: Q01DX005 (ip), vehicle: carboxymethylcellulose (CMC)) was 9 of 10, the survivor count (dose: 240.0 mg/kg/injection, schedule: Q01DX009 (ip), vehicle: carboxymethylcellulose (CMC)) was 9 of 10 and the T/C (dose: 240.0 mg/kg/injection, schedule: Q01DX009 (oral), vehicle: carboxymethylcellulose (CMC)) was 147 % of control [9 of 10 alive]. The survivor count (dose: 240.0 mg/kg/injection, schedule: Q## X003 (ip), vehicle: carboxymethylcellulose (CMC)) was 9 of 10, the survivor count (dose: 240.0 mg/kg/injection, schedule: Q## X024 (ip), vehicle: carboxymethylcellulose (CMC)) was 5 of 10 and the T/C (dose: 250.0 mg/kg/injection, schedule: Q01DX Z (ip), vehicle: carboxymethylcellulose (CMC)) was 126 and 147 % of control. For the same compound, the T/C (dose: 250.0 mg/kg/injection, schedule: Q04DX005 (ip), vehicle: carboxymethylcellulose (CMC)) was 131 % of control, the T/C (dose: 300.0 mg/kg/injection, schedule: Q04DX003 (ip), vehicle: carboxymethylcellulose (CMC)) was 135 % of control and the survivor count (dose: 300.0 mg/kg/injection, schedule: Q06HX012 (ip), vehicle: carboxymethylcellulose (CMC)) was 8 of 8. For the same compound, the T/C (dose: 300.0 mg/kg/injection, schedule: Q12HX006 (ip), vehicle: carboxymethylcellulose (CMC)) was 138 % of control, the T/C (dose: 400.0 mg/kg/injection, schedule: Q01DX001 (ip), vehicle: other) was 140 % of control and the T/C (dose: 400.0 mg/kg/injection, schedule: Q01DX009 (ip), vehicle: acetone) was 126 % of control. The survivor count (dose: 400.0 mg/kg/injection, schedule: Q01DX009 (ip), vehicle: other) was 5 of 6, the T/C (dose: 400.0 mg/kg/injection, schedule: Q## X024 (ip), vehicle: other) was 134 % of control and the survivor count (dose: 480.0 mg/kg/injection, schedule: Q01DX001 (ip), vehicle: carboxymethylcellulose (CMC)) was 9 of 10. The T/C (dose: 480.0 mg/kg/injection, schedule: Q01DX001 (sc), vehicle: carboxymethylcellulose (CMC)) was 134 % of control, the survivor count (dose: 480.0 mg/kg/injection, schedule: Q01DX005 (ip), vehicle: carboxymethylcellulose (CMC)) was 7 of 10 and the survivor count (dose: 480.0 mg/kg/injection, schedule: Q01DX009 (ip), vehicle: carboxymethylcellulose (CMC)) was 9 of 10. For the same compound, the survivor count (dose: 480.0 mg/kg/injection, schedule: Q## X003 (ip), vehicle: carboxymethylcellulose (CMC)) was 6 of 10, the T/C (dose: 480.0 mg/kg/injection, schedule: Q## X003 (oral), vehicle: carboxymethylcellulose (CMC)) was 136 % of control and the survivor count (dose: 500.0 mg/kg/injection, schedule: Q01DX009 (ip), vehicle: carboxymethylcellulose (CMC)) was 10 of 10. The survivor count (dose: 500.0 mg/kg/injection, schedule: Q01DX017 (ip), vehicle: carboxymethylcellulose (CMC)) was 9 of 10, the T/C (dose: 500.0 mg/kg/injection, schedule: Q02DX008 (ip), vehicle: carboxymethylcellulose (CMC)) was 132 % of control [5 of 6 alive] and the T/C (dose: 500.0 mg/kg/injection, schedule: Q04DX003 (ip), vehicle: carboxymethylcellulose (CMC)) was 135 % of control. The T/C (dose: 500.0 mg/kg/injection, schedule: Q04DX005 (ip), vehicle: carboxymethylcellulose (CMC)) was 145 % of control, the T/C (dose: 600.0 mg/kg/injection, schedule: Q01DX009 (ip), vehicle: acetone) was 142 % of control and the T/C (dose: 600.0 mg/kg/injection, schedule: Q08DX002 (ip), vehicle: carboxymethylcellulose (CMC)) was 141 % of control. For the same compound, the survivor count (dose: 600.0 mg/kg/injection, schedule: Q12HX006 (ip), vehicle: carboxymethylcellulose (CMC)) was 7 of 8, the T/C (dose: 800.0 mg/kg/injection, schedule: Q01DX001 (ip), vehicle: other) was 140 % of control and the T/C (dose: 900.0 mg/kg/injection, schedule: Q04DX003 (ip), vehicle: acetone) was 131 % of control. For the same compound, the survivor count (dose: 960.0 mg/kg/injection, schedule: Q01DX001 (ip), vehicle: carboxymethylcellulose (CMC)) was 8 of 10, the survivor count (dose: 960.0 mg/kg/injection, schedule: Q01DX005 (ip), vehicle: carboxymethylcellulose (CMC)) was 5 of 10 and the survivor count (dose: 960.0 mg/kg/injection, schedule: Q01DX009 (oral), vehicle: carboxymethylcellulose (CMC)) was 8 of 9. The survivor count (dose: 960.0 mg/kg/injection, schedule: Q01DX009 (sc), vehicle: carboxymethylcellulose (CMC)) was 8 of 10, the survivor count (dose: 960.0 mg/kg/injection, schedule: Q## X003 (ip), vehicle: carboxymethylcellulose (CMC)) was 9 of 10 and the survivor count (dose: 960.0 mg/kg/injection, schedule: Q## X024 (ip), vehicle: carboxymethylcellulose (CMC)) was 10 of 10. The survivor count (dose: 1000.0 mg/kg/injection, schedule: Q01DX001 (ip), vehicle: carboxymethylcellulose (CMC)) was 10 of 10, the survivor count (dose: 1000.0 mg/kg/injection, schedule: Q01DX009 (ip), vehicle: carboxymethylcellulose (CMC)) was 7 of 10 and the survivor count (dose: 1000.0 mg/kg/injection, schedule: Q01DX Z (ip), vehicle: carboxymethylcellulose (CMC)) was 8 of 8. For the same compound, the survivor count (dose: 1000.0 mg/kg/injection, schedule: Q02DX005 (ip), vehicle: carboxymethylcellulose (CMC)) was 8 of 10 and 10 of 10, the survivor count (dose: 1000.0 mg/kg/injection, schedule: Q02DX008 (ip), vehicle: carboxymethylcellulose (CMC)) was 1 of 6 and the survivor count (dose: 1000.0 mg/kg/injection, schedule: Q02DX009 (ip), vehicle: carboxymethylcellulose (CMC)) was 10 of 10. For the same compound, the survivor count (dose: 1000.0 mg/kg/injection, schedule: Q04DX005 (ip), vehicle: carboxymethylcellulose (CMC)) was 10 of 10, the T/C (dose: 1200.0 mg/kg/injection, schedule: Q08DX002 (ip), vehicle: carboxymethylcellulose (CMC)) was 141 % of control and the T/C (dose: 1440.0 mg/kg/injection, schedule: Q01DX001 (oral), vehicle: carboxymethylcellulose (CMC)) was 144 % of control. The survivor count (dose: 1440.0 mg/kg/injection, schedule: Q01DX009 (oral), vehicle: carboxymethylcellulose (CMC)) was 10 of 10 and the survivor count (dose: 1440.0 mg/kg/injection, schedule: Q02DX005 (oral), vehicle: carboxymethylcellulose (CMC)) was 7 of 10.
